These are yes or no findings as the source states them, for the method shown. In cells and extracts the contact can be indirect. Here binding means that the protein was enriched with, or labelled near, the bait; the list need not be complete. For some of these results: Tags and fused reporters may be left off the sequences shown.

Chains of the proteins cited; added tags and fusions are not shown.
UniProt Q12499: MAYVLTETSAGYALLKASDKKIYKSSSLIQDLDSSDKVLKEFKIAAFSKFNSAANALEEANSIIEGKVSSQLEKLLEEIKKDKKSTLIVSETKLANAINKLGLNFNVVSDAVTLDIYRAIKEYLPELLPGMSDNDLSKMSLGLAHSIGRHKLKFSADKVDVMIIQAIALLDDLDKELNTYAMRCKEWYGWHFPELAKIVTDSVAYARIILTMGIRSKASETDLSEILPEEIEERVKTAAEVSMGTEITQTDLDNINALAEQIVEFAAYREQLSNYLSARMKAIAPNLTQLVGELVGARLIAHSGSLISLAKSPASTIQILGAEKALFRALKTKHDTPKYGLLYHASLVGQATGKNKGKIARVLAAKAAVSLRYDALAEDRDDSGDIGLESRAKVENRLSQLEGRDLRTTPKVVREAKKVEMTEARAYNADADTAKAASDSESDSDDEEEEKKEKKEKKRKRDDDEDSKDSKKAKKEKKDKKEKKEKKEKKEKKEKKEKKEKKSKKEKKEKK
UniProt Q05022: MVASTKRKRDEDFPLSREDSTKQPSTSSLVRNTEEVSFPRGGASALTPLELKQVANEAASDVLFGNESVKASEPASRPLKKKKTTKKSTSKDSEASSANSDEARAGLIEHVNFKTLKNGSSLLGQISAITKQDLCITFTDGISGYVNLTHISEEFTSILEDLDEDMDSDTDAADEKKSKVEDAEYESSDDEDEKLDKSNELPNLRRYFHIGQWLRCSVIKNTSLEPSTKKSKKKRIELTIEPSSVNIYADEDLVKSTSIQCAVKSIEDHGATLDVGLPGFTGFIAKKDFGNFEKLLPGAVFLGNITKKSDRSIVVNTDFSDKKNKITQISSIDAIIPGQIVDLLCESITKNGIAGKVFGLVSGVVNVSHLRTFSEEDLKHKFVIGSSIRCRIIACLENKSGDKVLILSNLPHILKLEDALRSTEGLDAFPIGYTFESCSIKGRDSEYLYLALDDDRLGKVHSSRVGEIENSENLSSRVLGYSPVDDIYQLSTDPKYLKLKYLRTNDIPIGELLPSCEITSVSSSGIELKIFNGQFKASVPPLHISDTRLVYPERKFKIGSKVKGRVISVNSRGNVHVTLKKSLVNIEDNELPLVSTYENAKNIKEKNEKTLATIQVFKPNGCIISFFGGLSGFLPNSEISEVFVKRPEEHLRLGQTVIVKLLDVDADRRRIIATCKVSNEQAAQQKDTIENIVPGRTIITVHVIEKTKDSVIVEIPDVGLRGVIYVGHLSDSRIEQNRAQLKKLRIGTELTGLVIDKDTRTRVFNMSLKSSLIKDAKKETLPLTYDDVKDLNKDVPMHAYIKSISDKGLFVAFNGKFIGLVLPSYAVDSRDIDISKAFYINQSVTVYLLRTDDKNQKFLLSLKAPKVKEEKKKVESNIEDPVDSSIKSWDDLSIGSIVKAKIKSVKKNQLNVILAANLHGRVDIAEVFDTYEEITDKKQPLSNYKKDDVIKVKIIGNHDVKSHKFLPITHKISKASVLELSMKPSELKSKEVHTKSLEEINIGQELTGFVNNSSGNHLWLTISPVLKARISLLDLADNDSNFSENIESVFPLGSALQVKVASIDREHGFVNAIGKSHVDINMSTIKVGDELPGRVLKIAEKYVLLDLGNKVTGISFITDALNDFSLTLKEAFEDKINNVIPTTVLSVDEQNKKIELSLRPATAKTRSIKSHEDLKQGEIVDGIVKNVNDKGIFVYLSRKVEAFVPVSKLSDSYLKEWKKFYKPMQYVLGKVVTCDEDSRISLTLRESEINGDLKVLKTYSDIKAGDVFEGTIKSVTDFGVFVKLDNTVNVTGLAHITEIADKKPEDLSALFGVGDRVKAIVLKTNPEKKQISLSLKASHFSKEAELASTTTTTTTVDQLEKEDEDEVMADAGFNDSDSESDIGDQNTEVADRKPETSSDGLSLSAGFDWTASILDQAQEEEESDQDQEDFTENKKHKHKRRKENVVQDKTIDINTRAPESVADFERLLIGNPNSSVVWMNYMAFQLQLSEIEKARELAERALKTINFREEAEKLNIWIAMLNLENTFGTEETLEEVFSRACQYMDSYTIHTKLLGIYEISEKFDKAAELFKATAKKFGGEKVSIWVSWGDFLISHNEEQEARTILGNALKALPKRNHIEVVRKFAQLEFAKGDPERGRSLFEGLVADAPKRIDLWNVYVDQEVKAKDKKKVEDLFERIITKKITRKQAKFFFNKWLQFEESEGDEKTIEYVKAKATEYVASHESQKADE
UniProt P42945: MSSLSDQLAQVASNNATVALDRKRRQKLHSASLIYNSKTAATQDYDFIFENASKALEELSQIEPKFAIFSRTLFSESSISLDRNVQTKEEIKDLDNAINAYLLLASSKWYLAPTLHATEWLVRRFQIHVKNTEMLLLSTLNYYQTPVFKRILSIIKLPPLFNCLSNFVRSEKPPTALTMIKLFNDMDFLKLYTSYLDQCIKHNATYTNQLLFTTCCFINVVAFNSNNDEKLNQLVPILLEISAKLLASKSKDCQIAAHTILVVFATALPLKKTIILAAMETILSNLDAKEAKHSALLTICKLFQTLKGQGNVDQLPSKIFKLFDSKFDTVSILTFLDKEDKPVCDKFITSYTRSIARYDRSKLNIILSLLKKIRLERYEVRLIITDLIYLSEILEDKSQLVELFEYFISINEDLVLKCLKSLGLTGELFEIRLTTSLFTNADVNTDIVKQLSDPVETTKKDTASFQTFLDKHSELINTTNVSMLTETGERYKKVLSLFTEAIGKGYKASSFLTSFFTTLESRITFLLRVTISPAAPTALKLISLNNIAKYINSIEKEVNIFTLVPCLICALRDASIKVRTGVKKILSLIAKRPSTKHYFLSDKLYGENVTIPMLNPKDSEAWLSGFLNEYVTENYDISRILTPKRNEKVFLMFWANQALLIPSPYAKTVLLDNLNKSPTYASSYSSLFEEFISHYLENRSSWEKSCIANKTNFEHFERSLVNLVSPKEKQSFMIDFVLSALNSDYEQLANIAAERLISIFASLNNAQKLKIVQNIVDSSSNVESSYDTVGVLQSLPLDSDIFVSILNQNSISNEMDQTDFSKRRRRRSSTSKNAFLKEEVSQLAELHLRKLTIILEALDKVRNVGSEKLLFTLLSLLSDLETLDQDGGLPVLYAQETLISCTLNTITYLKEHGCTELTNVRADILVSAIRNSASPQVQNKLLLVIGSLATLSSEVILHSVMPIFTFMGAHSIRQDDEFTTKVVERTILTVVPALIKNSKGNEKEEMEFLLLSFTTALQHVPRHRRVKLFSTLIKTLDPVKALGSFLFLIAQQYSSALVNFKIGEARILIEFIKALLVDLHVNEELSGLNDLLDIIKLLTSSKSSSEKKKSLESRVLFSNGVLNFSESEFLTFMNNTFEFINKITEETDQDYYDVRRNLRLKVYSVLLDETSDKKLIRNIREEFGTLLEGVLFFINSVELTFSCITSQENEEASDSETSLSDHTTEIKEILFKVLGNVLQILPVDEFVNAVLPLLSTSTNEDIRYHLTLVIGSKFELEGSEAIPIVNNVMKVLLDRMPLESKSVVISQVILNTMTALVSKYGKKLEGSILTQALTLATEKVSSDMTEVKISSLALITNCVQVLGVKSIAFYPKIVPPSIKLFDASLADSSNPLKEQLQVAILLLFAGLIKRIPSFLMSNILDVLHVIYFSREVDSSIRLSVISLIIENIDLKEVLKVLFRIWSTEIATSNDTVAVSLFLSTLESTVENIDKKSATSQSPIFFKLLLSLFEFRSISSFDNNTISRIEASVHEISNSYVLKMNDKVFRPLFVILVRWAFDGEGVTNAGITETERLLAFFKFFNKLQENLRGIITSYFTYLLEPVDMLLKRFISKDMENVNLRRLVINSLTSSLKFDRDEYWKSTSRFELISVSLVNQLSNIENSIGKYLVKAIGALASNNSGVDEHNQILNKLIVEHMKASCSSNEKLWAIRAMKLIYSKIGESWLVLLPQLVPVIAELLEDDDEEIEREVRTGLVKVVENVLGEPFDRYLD
UniProt P34241: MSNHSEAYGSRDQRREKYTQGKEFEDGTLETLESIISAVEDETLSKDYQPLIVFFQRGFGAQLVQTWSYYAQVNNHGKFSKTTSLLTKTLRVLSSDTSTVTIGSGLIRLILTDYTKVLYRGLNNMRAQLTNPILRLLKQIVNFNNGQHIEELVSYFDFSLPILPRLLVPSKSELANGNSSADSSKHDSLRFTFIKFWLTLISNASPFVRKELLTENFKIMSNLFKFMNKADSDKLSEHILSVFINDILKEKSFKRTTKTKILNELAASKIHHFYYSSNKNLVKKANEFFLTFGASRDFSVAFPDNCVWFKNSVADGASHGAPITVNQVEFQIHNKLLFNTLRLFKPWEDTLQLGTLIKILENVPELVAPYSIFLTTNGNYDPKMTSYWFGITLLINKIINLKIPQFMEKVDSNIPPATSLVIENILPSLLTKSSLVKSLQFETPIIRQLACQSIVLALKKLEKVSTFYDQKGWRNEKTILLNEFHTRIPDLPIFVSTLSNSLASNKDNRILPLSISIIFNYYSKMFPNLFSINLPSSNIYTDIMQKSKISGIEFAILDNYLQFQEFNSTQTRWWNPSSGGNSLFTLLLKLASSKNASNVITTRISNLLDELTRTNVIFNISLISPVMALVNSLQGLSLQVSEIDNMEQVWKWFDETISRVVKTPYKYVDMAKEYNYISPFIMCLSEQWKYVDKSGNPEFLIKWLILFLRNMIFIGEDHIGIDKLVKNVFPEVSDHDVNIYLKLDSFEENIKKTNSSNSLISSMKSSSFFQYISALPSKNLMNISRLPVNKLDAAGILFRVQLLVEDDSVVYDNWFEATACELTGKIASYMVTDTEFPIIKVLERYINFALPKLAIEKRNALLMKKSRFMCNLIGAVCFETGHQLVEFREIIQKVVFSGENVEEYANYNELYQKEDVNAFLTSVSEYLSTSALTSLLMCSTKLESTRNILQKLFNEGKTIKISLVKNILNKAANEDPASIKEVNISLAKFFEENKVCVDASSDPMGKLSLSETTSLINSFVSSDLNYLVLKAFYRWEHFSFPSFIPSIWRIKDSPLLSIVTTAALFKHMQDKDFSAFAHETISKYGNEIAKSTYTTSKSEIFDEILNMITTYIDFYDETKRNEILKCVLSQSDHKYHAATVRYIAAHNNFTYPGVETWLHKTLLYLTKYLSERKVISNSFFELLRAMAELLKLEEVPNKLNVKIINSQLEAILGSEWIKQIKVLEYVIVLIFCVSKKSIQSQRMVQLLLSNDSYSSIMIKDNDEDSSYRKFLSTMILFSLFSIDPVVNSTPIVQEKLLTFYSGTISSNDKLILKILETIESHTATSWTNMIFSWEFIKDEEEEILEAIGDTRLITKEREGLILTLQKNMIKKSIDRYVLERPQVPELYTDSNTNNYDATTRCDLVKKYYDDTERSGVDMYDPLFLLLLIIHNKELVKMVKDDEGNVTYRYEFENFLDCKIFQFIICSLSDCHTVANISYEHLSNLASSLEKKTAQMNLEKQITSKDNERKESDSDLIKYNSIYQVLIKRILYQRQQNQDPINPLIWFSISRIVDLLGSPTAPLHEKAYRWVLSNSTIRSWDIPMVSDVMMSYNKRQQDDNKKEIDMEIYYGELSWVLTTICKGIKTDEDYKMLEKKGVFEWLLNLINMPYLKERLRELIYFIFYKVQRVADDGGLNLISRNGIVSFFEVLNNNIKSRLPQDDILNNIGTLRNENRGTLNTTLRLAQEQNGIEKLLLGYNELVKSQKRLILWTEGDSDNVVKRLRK

Assay [1] deals with T1, Sni445-TAP (S. cerevisiae) (UniProt P53952).
T1 sequence: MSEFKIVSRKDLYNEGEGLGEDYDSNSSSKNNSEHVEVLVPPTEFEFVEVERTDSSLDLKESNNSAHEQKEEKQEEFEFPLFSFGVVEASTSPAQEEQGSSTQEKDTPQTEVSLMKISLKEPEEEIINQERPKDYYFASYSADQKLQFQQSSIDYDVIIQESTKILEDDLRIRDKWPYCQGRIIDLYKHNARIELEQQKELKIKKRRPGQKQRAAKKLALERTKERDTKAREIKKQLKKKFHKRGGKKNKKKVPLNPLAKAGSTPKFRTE
Kind of assay: affinity purification with mass spectrometry; split-tag two-step purification: first Sni445-TAP on IgG Sepharose with TEV elution, then Nop58-FLAG on anti-FLAG M2 agarose with 3x Flag peptide elution; SDS-PAGE, Coomassie, bands identified by MS.

For assay [2], the target named is Nop58-FLAG (S. cerevisiae) (UniProt Q12499). Described as above.
Assay [3] concerns the target T2, Sni445-TurboID (S. cerevisiae) (UniProt P53952).
T2 sequence: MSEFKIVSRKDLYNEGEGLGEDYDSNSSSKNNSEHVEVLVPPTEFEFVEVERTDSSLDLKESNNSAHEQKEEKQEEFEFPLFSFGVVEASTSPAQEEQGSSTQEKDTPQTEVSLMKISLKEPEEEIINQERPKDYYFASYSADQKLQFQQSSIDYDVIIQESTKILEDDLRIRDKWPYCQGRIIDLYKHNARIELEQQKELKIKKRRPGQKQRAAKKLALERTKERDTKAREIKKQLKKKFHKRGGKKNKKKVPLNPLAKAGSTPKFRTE
Kind of assay: proximity labelling; TurboID: Sni445-TurboID expressed from the CUP1 promoter in yeast; biotinylated proteins purified on streptavidin beads and identified by MS; enrichment against GFP-TurboID and NLS-GFP-TurboID controls.

In assay [4] the target is T1, Sni445-TAP (S. cerevisiae). Kind of assay: affinity purification with mass spectrometry; tandem affinity purification of chromosomally TAP-tagged baits from yeast lysate (IgG Sepharose, TEV elution, Calmodulin Sepharose, EGTA elution; 50 mM Tris-HCl pH 7.5, 100 mM NaCl, 1.5 mM MgCl2, 0.075% NP-40); label-free MS, three replicates; Pwp2-TAP and Enp1-TAP also from sni445 deletion strains.

Assay [5] deals with T3, Sni445-FLAG (S. cerevisiae) (UniProt P53952).
T3 sequence: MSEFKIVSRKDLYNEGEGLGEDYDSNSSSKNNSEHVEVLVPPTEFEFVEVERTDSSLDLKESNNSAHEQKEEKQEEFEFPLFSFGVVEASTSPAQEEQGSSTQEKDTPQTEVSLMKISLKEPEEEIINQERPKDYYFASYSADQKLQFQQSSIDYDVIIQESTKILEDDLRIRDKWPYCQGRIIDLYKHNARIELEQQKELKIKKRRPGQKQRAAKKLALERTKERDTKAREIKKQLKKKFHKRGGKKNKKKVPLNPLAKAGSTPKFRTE
Kind of assay: affinity purification with mass spectrometry; one-step FLAG purification of Sni445-FLAG from yeast lysate (Anti-FLAG M2 Affinity Gel, FLAG-peptide elution; 50 mM Tris-HCl pH 7.5, 100 mM NaCl, 1.5 mM MgCl2, 0.075% NP-40); label-free MS, three replicates.

Take Nop58-FLAG (from UniProt Q12499 1-511): the binding result in assay [1] is recorded as “binds”.

As for Rrp5 (from UniProt Q05022 1-1729), the binding entry in assay [2] and in assay [1] was “binds” each time.

As for Utp10 (from UniProt P42945 1-1769), the binding result in assay [2] and in assay [1] was “binds” each time.

As to Npa1 (from UniProt P34241 1-1764), the binding entry in assay [2] and in assay [1] was “binds” throughout.

B1: Nsa2 (protein, UniProt P40078 1-261)
chain: MPQNDYIERHIKQHGKRLDHEERKRKREARESHKISERAQKLTGWKGKQFAKKRYAEKVSMRKKIKAHEQSKVKGSSKPLDTDGDALPTYLLDREQNNTAKAISSSIKQKRLEKADKFSVPLPKVRGISEEEMFKVIKTGKSRSKSWKRMITKHTFVGEGFTRRPVKMERIIRPSALRQKKANVTHPELGVTVFLPILAVKKNPQSPMYTQLGVLTKGTIIEVNVSELGMVTAGGKVVWGKYAQVTNEPDRDGCVNAVLLV
B1: the binding entry in assay [3] was “binds”.

B2: Mak21 (protein, UniProt Q12176 1-1025)
chain: MSENNGNPLDLSSLRNKISSKLRDNNSKKAKKTHKGKDVKASSNSKKVNEDIRREALALGASEEDLKLIQGLSDDDDAKSEQEFDAVADEDADDKGFKNDLQNFMKNVGFDQHKLEDVDDDDIEEESTSSKESKIPAQEKEHAQSNIASSTIEKTSQESIDNGSEQEENTVEEANLSSDQEPESESAEKEKKEEKDGGLITQTTIISSDKLIIPYDKPWYEIPLDPQVGQNDDVEELSKEQIEKLFERGKQTLEADNQTYYEEFTKDSSQAKFMSQILSDGTLNDKISAVTLLIQDSPLHNTKSLETLVSYCGKKSRNSALQSLNALKDLFLNGLLPNRKLRYFKNQPGLSMMLNKKTLAIFYFEDYLKKLFFRVLEVLEVLSHDPIIHVRLQILNHVFDLLTNQPEQEFNLLRLGVNKIGDIDSKVSSKASYLLLKLEQAHPNMKSIVIDAIVDIALRPNADYHTTYYSVITLNQTILKRSEDSVANKLVKTYFTLFEKFLINTDKDNTNGVVKSNSKSYEEKRKKNFKKGKHGGKSVKIEKTENEVLDEKNSKLFSALLTGINRAFPFAQIPASVYEVHMETLFKITHSSNFNTSIQALVLINQVTVKAKLNSDRYYRTLYESLFDPRLVNSSKQGIYLNLLYKSLKQDALNVERVEAFVKRILQVCSHWLNVGTITGFFFLLIQLAKTVPQIKNLLTNTPVDYEYESDAEEEQGDKDIKRKEYDGRKRDPKFANAEKSSLWEINNFINHFHPTVKTYANAYVTGETEQIAKPDLGLFTLSHFLDRFVYRSAKQTNTARGTSIMQPLFSGSRVNDSVLVKASDIMHDQGPVNTEDWLTKKVEDIKPEDKFFYQYFTTKKTADGKGKKSNKASNFDSDDEMDENEIWSALVKSRPDVEDDSDDSELDFAEDDFSDSTSDDEPKLDAIDDEDAKSEGSQESDQEEGLDEDIFYSFDGEQDNSDKKRSFAESSEEDESSEEEKEEEENKEVSAKRAKKKQRKNMLKSLPVFASADDYAQYLDQDSD
For the molecule B2, the binding result in assay [2] and in assay [1] was “binds” each time.

B3: Nop12 (protein, UniProt Q08208 1-459)
chain: MSSAIDNLFGNIDEKKIESSVDKLFSSSCGPINKLEVKSKTRTVLPDSKKRERAAEADQEEKEASKPDVSDEQTEEVALPKVKKAKKSKRNDEDEDLEARYYAKLLNEEAEAEDDKPTVTKTDETSVPLTSAAKKVDFKEDELEKAERTVFIGNILSTVITSKKVYKEFKKLFGTNPIAETEESGNEKEEESSKKSDNNEFAIESIRFRSISFDEALPRKVAFVQQKFHKSRDTINAYIVYKNKSAVRKICSNLNAVVFQDHHLRVDSVAHPAPHDKKRSIFVGNLDFEEIEESLWKHFEPCGDIEYVRIIRDSKTNMGKGFAYVQFKDLQSVNKALLLNEKPMKSQKQEDENTKKPTKKARKLRVSRCKNMKKGTTIGTGLDRNGLTDSQRTRAGRAKKILGKADRATLGQEITIEGLRAKKGEGSTHLKKKKQRSATGRVTKRSIAFKKAQAEKSKK
Consider B3, for which the binding entry in assay [4] and in assay [5] was “binds” throughout.

B4: Nsa1 (protein, UniProt P53136 1-463)
chain: MRLLVSCVDSGSIKEVLCNIGTDTSVQSALQPFHVAPHLAEGLKAYVDRMWVISEDEAILARNSGVVELVKISKHLKENEALQVDPKGESKNEKSLSDDLPKFDISEFEITSSVSDLFDDAKLESLSSKSVKRTKLVDGFVTLCPIKKDSSNNTFVAATKSGLLHIIKKGEDKKLIKLASLGLKAPVEFLQLYDLEDTDTDKYIFAYGGEENLIKLVEIDSSFQSLKQIWEAKNVKNDRLDMRVPVWPMALRFLEPSPGKTEKGKLNYQFAAITRWSHLTKYSTQHGRKPFAQIDLLPNREPLSQMEVFDAKGENVVSSLGNFQSETFNELNVITTDYKKNVFKFDGNGRMLGKVGRDDITGSSTYIHVHDGKYLLQGGLDRYVRIFDIKTNKMLVKVYVGSRINFIVMLDDVEIEMPLSPSAKAAKGKQKRKVTELEEDADELWNKLEGKVAASKASKKSKI
On to B4, for which the binding result in assay [4] and in assay [5] was “binds” each time.

B5: Ssf1 (protein, UniProt P38789 1-453)
chain: MAKRRQKKRTHAQLTPEQEQGIPKSMVIRVGQTSLANHSLNQLVKDFRQIMQPHTAIKLKERKSNKLKDFVVMCGPLGVTHLFMFTQSEKTGNVSLKIARTPQGPTVTFQVLDYSLGRDIKKFLKRPKSLNNDDVLNPPLLVLNGFSTSKRSGEDDQDVNVEKVIVSMFQNIFPPLNPARTSLNSIKRVFMINKDRETGEISMRHYFIDIREVEISRNLKRLYKAKNNLSKTVPNLHRKEDISSLILDHDLGAYTSESEIEDDAIVRVVDNQDVKAKHSQSLKSQRTPVEKKDNKEREKETEEEDVEMEEPKPSENLQPTPRKKAIKLTELGPRLTLKLVKIEEGICSGKVLHHEFVQKSSEEIKALEKRHAAKMRLKEQRKKEQEENIAKKKAVKDAKKQRKLERRKARAAEGGEGQGKDDAMSDDESSSSDSEHYGSVPEDLDSDLFSEVE
Regarding B5, the binding entry in assay [3] was “binds”.

B6: Rrp17 (protein, UniProt Q04031 1-235)
chain: MAVHTNRQILTRGKNYATKQSKKFGTDEVTFDKDSRLDYLTGFHKRKLQRQKKAQEFIKEQERLRKIEERQKIRQERKEVMEEQLKTFKESLNLEAEIEDAKNDKTEDLQVESDESWHGFDSDKDDGDNDNNESSVKPILKKGAITEIYDDSTTVELETLEPNDNFEYLAQLNNVKLEKAEKVLKQSINRATKYAKFLGVDEKQKKKPRVKKFRYLTKNERRINQRKANDNKRRR
B6: the binding entry in assay [3] is on record as “binds”.

B7: Rrp12 (protein, UniProt Q12754 1-1228)
chain: MDQDKVAFLLELEDKLAKIRSQVNSKLENQKHIAIILTAVEENIAGQATNDVSKNIVNYIISFMSLLDQAVDPSTHEIKDIQLASSSTYLLDLIFHYSPKVLLRSKFSEILTKIAPCITAEKANAPLIRAAIGCLESLLIAQDAQAWNNTYDLNVTPKRGLQGILELSLDVRPKVRKRALDAVHAVLLNPPVAPTAEHVAAVFVADFCDKQLAGILNDLSNLSNKQLKAQKTKEDINASVMRSLRLITSVVSTGQWPSSQIEPLCDVLLGVTKSSEQYLVSASFECFESMFKTMAETTISSGLAENKYLRVLDTIFALKPSNVDTLLTKSWIAVVIKGMSTYATHQPLKALRKIPGVFHIMCTYLASETPEVYQAASQCLISILSESVKDDLLLYTPSVDEKVFKNVDEIISQIAKTFIDFLSIRYSHCSREILKILVAAFNKFRYRSNPHFLKSLKIVDTWRVNEEQFMDLRNEIELVIGASISAMGPEMILAEAPLNLDNPSSERPGRAWLLPLIRDYTKNANLATFQNELAPYIKSFQSKFDKVPEESIQLRVFQTIVDQIWSTLPRFCELPMDLRESFTDEFASELSSLLYSEVELRTTICHALKVLAESNVSYAEESSSHNVLLLQRFPISEAQKNIEYLSTKSTNLLAVLFNVYTQTTPNARSYILETIDQYLKITSKEDLEKTFNNVCGLLKNSMNEESSGNVNKEKKKPQLTATLLDLIICMITYLPVSSYSALFSMFSLTVNSADALIQKRAYRIITKLSELKSGSTAVAQFISDIENVMVDSASSVQTSAKAARLTAIKTIVELLPLDHLDFIVRTVAEVILSTKDVNEKSRETAFDTLICMGRKMNEPNGIIKLFQIPGYDPTTPDQSSSISEFFKIISAGLIGESQHMVSSSITGYACLVFEFKNELDSGILMDIYDTIELYLTSNSREIVKSAIGFTKVCVLGLPEELMRPKVPELLLKLLRWSHEHTGHFKAKVKHIIERLIRRFGYDYIEANFPEEDRRLLTNIRKMRNRNKRKDEEVTTGVSDVAATKGSRFMSAFDEAVYGSDEENDNGSDQEENVAGGKMKNGAKQFIVESGDNPLDLLDSQTLAHISSTRPKKFNKNQNRARFNDDAFNFDSEGKLVVKGQPKPSTNVDDPLSAVTSGINAYLEAVKSGPVRGQRNKLKFRKNGKDSDEFGDDDDGEKDSRLMRGRVNQGNKIGKHNKKGPKFKSRKKL
With B7, the binding result in assay [3], in assay [2] and in assay [1] was “binds” each time.

These data come from article PMC12848939.
